Taken from: PubChem BioAssay AID1259314 (Drosophila RNAi Screening Center, 2017)
Aim: 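Modifiers of manganese chloride toxicity in fly cells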 (primary screen). Cell system: Drosophila S2R+ cells. Reagent: long dsRNA against Drosophila genes. Duration: 5 days (4 days knock-down, then 1 day metal exposure). Challenge: manganese chloride added to 15 mM for 24 hours. Detection: 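Luciferase ATP signal used as a proxy for viable cell number, reported as one averaged z-score per dsRNA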. Direction: mean ATP z-score: higher = more ATP than the plate average, more viable cells under manganese. Call rule: 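Called active when the mean ATP z-score is above 1.5 or below -1.5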. Calls: active = strong ATP change, up or down; inactive = no strong ATP change.
The whole screen tested about 3,100 reagents; below is a part drawn at random. 289 of them (9.3%) were called active. 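Active includes both higher and lower ATP than plate average; check the z-score sign for direction.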 Names joined by + are all predicted targets of the reagent. No sequences are given here. Not given: the amount of reagent.

| target | dsRNA | mean ATP z-score | Outcome |
| --- | --- | --- | --- |
| LRP1 | DRSC07238 | -0.171 | inactive |
| CG1698 | DRSC06640 | -0.22 | inactive |
| CG1698 | DRSC24314 | -0.557 | inactive |
| polyph | DRSC06254 | -0.472 | inactive |
| Indy-2 + CG33934 | DRSC15685 | 0.908 | active |
| Indy-2 + CG33934 | DRSC15686 | -0.525 | inactive |
| scb | DRSC05542 | 0.418 | inactive |
| scb | DRSC07678 | -0.425 | inactive |
| CG31183 | DRSC14403 | 1.42 | inactive |
| CG31183 | DRSC15554 | -0.569 | inactive |
| wgn | DRSC19998 | -0.579 | inactive |
| wgn | DRSC39695 | 1.16 | inactive |
| Sply | DRSC07299 | -2.4 | active |
| Sply | DRSC27378 | -0.01 | inactive |
| ppk5 | DRSC11492 | 0.388 | inactive |
| ppk5 | DRSC39548 | -0.123 | inactive |
| Tsp42Ej | DRSC06113 | -0.587 | inactive |
| Tsp42Ej | DRSC28269 | 0.445 | inactive |
| CadN | DRSC03286 | -0.471 | inactive |
| CadN | DRSC27368 | -0.904 | inactive |
| CG45049 | DRSC16163 | 1.99 | active |
| CG45049 | DRSC23175 | -0.417 | inactive |
| emp | DRSC04019 | 0.589 | inactive |
| emp | DRSC04683 | -0.258 | inactive |
| wls | DRSC10605 | -0.651 | inactive |
| wls | DRSC29313 | -0.584 | inactive |
| Or67c | DRSC11242 | -1.15 | inactive |
| Or67c | DRSC39762 | -1.58 | active |
| CG6574 | DRSC16070 | 0.0836 | inactive |
| CG6574 | DRSC39694 | -0.234 | inactive |
| CCAP-R | DRSC14891 | -0.41 | inactive |
| CCAP-R | DRSC15967 | 0.239 | inactive |
| CCAP-R | DRSC29494 | -0.17 | inactive |
| Desat1 | DRSC23578 | -3.51 | active |

Targets above whose gene name begins with S or s (4):
| target | dsRNA | mean ATP z-score | Outcome |
| --- | --- | --- | --- |
| scb | DRSC05542 | 0.418 | inactive |
| scb | DRSC07678 | -0.425 | inactive |
| Sply | DRSC07299 | -2.4 | active |
| Sply | DRSC27378 | -0.01 | inactive |

The list goes on:
| target | dsRNA | mean ATP z-score | Outcome |
| --- | --- | --- | --- |
| trn | DRSC11407 | -0.532 | inactive |
| Sema1a | DRSC03433 | -0.0661 | inactive |
| Pex23 | DRSC10323 | 1.38 | inactive |
| Pex23 | DRSC10645 | -0.986 | inactive |
| Pex23 | DRSC28370 | 1.3 | inactive |
| brv1 | DRSC11076 | -0.515 | inactive |
| CG31321 | DRSC13028 | -0.442 | inactive |
| CG31321 | DRSC27335 | -0.258 | inactive |
| CG13014 | DRSC19533 | 1.07 | inactive |
| CG13014 | DRSC38999 | 0.27 | inactive |
| CG4991 | DRSC19928 | -0.818 | inactive |
| CG4991 | DRSC39735 | 0.36 | inactive |
| ppk22 | DRSC22093 | 0.659 | inactive |
| BBIP1 + CG8135 | DRSC16384 | -0.00922 | inactive |
| BBIP1 + CG8135 | DRSC26052 | -0.0315 | inactive |
| Atpalpha | DRSC14119 | 0.221 | inactive |
| Atpalpha | DRSC39134 | -0.896 | inactive |
| alpha-Cat | DRSC39510 | -0.37 | inactive |
| Polr3I | DRSC19922 | – | inactive |
| CG1265 | DRSC08288 | -0.475 | inactive |
| CG1265 | DRSC39523 | 0.225 | inactive |
| rtet | DRSC14160 | -1.31 | inactive |
| rtet | DRSC39843 | -0.982 | inactive |
| Vmat | DRSC22223 | -0.751 | inactive |
| Ctl2 | DRSC29712 | -0.304 | inactive |
| 5-HT1A | DRSC05030 | -1.14 | inactive |
| 5-HT1A | DRSC26404 | 0.665 | inactive |
| CCHa2-R | DRSC04870 | 0.692 | inactive |
| CCHa2-R | DRSC04871 | 0.102 | inactive |
| Ac13E | DRSC19325 | -0.887 | inactive |
| Ac13E | DRSC27333 | 1.23 | inactive |
| Poxm + Ctr1B | DRSC16245 | -1.39 | inactive |
| Poxm + Ctr1B | DRSC39592 | 0.0565 | inactive |
| PGRP-SC2 | DRSC06481 | 0.122 | inactive |
| PGRP-SC2 | DRSC25449 | 2.29 | active |
| ZnT86D | DRSC16091 | -0.709 | inactive |
| PK2-R1 | DRSC16447 | -0.302 | inactive |
| PK2-R1 | DRSC24363 | -1.1 | inactive |
| Smvt | DRSC15426 | 0.122 | inactive |
| Smvt | DRSC39637 | 1.55 | active |
| kek3 | DRSC22830 | -0.277 | inactive |
| kek3 | DRSC24250 | 0.127 | inactive |
